Source: PubChem BioAssay AID1259276 (Sanger Institute, 2017)

Test: 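Find kinases whose silencing cuts viability alone or combined with BYL719, cetuximab or trametinib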 (primary screen)
Cell system: human C2BBe1 colorectal cancer cells
Knock-down reagent: siRNA pool against human genes
Conditions: DMSO vehicle, or one anchor drug: BYL719 at 1 µM, cetuximab at 5 µg/ml, or trametinib at 10 nM; exposure length not stated
Measurement: 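Viability after knock-down relative to non-targeting siRNA controls, averaged across replicates, given as ratio and control-derived robust z-score, with per-drug synergy scores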
Scale: viability robust z-score, siRNA alone: higher = more viable cells after knock-down
Call rule: 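a siRNA pool tested without drug is essential if its viability robust z-score falls under -3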
Calls: active = essential (siRNA alone); inactive = no change (siRNA alone)
Shown is an unselected part of 794 deposited reagents. 24 of all reagents (3%) count as active. 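Calls come only from the siRNA-alone arm; drug synergy scores do not affect them.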 Further read-outs or replicates are left out here. Reagent sequences are not shown. Not stated in the record: the amount of reagent, the time to read-out.

CDK2 [SID56478596]
- viability robust z-score, siRNA alone: 0.472
- call: inactive

GALK1 [SID56479189]
- viability robust z-score, siRNA alone: 0.472
- call: inactive

GRK7 [SID135620854]
- viability robust z-score, siRNA alone: -0.685
- call: inactive

TYRO3 [SID56478561]
- viability robust z-score, siRNA alone: 0.472
- call: inactive

KCNH2 [SID135621164]
- viability robust z-score, siRNA alone: 0.472
- call: inactive

PRKAG2 [SID135621825]
- viability robust z-score, siRNA alone: -0.259
- call: inactive

FASTK [SID56479004]
- viability robust z-score, siRNA alone: 0.472
- call: inactive

CDK6 [SID56478600]
- viability robust z-score, siRNA alone: 0.472
- call: inactive

MAPK11 [SID56478748]
- viability robust z-score, siRNA alone: 0.472
- call: inactive

NEK1 [SID152155530]
- viability robust z-score, siRNA alone: 0.472
- call: inactive

WIPF1 [SID152149422]
- viability robust z-score, siRNA alone: 0.283
- call: inactive

PI4K2A [SID135621249]
- viability robust z-score, siRNA alone: -0.207
- call: inactive

PIK3CB [SID56478474]
- viability robust z-score, siRNA alone: 0.472
- call: inactive

CDK1 [SID56478584]
- viability robust z-score, siRNA alone: 0.472
- call: inactive

NEK7 [SID56478729]
- viability robust z-score, siRNA alone: -0.163
- call: inactive

SMAD4 [SID134310148]
- viability robust z-score, siRNA alone: -0.632
- call: inactive

DGKD [SID56479091]
- viability robust z-score, siRNA alone: -0.341
- call: inactive

MARK3 [SID56478669]
- viability robust z-score, siRNA alone: 0.472
- call: inactive

RPS6KA1 [SID152152227]
- viability robust z-score, siRNA alone: 0.472
- call: inactive
